According to patent EP4843986A1, “ANGIOTENSIN II RECEPTOR ANTAGONIST AND USE THEREOF IN TREATMENT OF PERIPHERALLY-INDUCED NEUROPATHIC PAIN” (dated 2026):
Structures were worked out from names or drawings and are uncertain.

By UniProt entry, the sequences of proteins in these tests, tags left out.
UniProt P35374, whole entry: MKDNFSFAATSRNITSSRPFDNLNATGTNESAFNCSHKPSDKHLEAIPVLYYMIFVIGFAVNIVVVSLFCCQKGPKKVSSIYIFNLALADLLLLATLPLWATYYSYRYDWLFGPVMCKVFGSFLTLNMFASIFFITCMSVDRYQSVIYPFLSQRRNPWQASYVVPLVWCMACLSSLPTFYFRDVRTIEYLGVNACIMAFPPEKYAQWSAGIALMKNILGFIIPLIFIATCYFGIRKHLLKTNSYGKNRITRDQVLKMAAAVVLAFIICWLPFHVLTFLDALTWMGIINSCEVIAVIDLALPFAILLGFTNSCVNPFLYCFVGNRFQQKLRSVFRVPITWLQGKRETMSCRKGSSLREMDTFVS

How the values were obtained:
[1] = biological target: AT2R (Mus musculus, UniProt P35374); assay: AT2R expression in RAW264.7 cells (Western blot and RT-PCR); conditions: AngII alone at 10, 30, 50, 100, and 200 nM, 24 h, vs negative control
Description: RAW264.7 cells were cultured in DMEM supplemented with 10% FBS at 37°C. Experiments were initiated when the cell confluence reached 70%. After the RAW264.7 cells were subjected to different groups of treatments, the supernatants were collected and centrifuged at 1000 × g and 4°C to remove cell pellets. The obtained supernatants were added to HT22 cells in DMEM supplemented with 10% FBS, followed by co-cultivation at 37°C.
Detection of AT2R Expression: When the confluence of RAW264.7 cells reached 70%, AngII (10, 30, 50, 100, and 200 nM) was added. The negative control group was treated with an equal volume of saline. After 24 h of treatment, the cells were collected for protein and RNA extraction to assess AT2R expression levels.
Assay for the Inhibitory Effect of A1 on AT2R: When the confluence of RAW264.7 cells reached 70%, a fixed concentration of AngII and serial concentrations of A1 (10, 30, 50, 100, and 200 nM) were added. The negative control group was treated with an equal volume of saline (without AngII). […]
Western Blot (WB): 1) RAW264.7 and HT22 cells subjected to different groups of treatments were lysed with lysis buffer (containing 10 µL PMSF (100×) and 10 µL phosphatase inhibitor per milliliter of lysis buffer) for protein extraction. […] 3) The protein concentration in lysates was quantified using the BCA Protein Assay Kit (Thermo Fisher Scientific). […]

[2] = system: mouse peritoneal macrophages; assay: AngII-induced reactive oxygen species generation in mouse peritoneal macrophages (DCFH-DA fluorescence); conditions: AngII alone (0.2 µM); vs blank vehicle control group
Description: Mouse peritoneal macrophages express angiotensin II type 2 receptors (AT2R). As a ligand for AT2R, angiotensin II (AngII) binds to AT2R and induces an increase of reactive oxygen species (ROS) produced in mouse peritoneal macrophages. This assay assesses whether AT2R antagonists inhibit AngII-induced ROS generation in mouse peritoneal macrophages by inhibiting AT2R on mouse peritoneal macrophages.
Six-week-old male C57BL/6 mice were euthanized. Primary mouse peritoneal macrophages were harvested by intraperitoneal injection of phenol red-free medium. After centrifugation, the macrophages were suspended in RPMI1640 + 5% FBS medium (containing 50 ng/µl GM-CSF) and cultured in a 37°C, 5% CO2 incubator for 2 days. Thereafter, the macrophages were seeded into 96-well plates and allowed to adhere for 24 hours. […] The ROS generation level of macrophages in each group was determined by real-time fluorescence scanning. […]
Data were collected using Excel software. Data were analyzed using Prism 6.01 (GraphPad Software, Inc.) software (one-way ANOVA). The experimental results of each group were statistically analyzed to compare statistical differences among groups, and p < 0.05 was considered statistically significant.

- protein and mRNA levels of AT2R [1]: elevated
SMILES: CC[C@H](C)[C@H](NC(=O)[C@H](Cc1ccc(O)cc1)NC(=O)[C@@H](NC(=O)[C@H](CCCNC(=N)N)NC(=O)[C@@H](N)CC(=O)O)C(C)C)C(=O)N[C@@H](Cc1cnc[nH]1)C(=O)N1CCC[C@H]1C(=O)N[C@@H](Cc1ccccc1)C(=O)O
- level of reactive oxygen species generated by macrophages [2]: markedly elevated
